Test results: the supplement of paper PMC10849652
This is one part of the list.

Protein sequences, listed by entry. Tags and fused reporters are not part of them. Lines headed by an entry give the natural chain unless they say otherwise; changes in a name come on top.
UniProt P17152: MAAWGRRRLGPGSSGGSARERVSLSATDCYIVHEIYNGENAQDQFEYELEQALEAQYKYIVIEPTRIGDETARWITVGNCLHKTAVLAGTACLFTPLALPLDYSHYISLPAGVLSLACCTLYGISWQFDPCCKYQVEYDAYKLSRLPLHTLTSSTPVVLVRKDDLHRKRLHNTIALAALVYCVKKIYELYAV
UniProt O95807: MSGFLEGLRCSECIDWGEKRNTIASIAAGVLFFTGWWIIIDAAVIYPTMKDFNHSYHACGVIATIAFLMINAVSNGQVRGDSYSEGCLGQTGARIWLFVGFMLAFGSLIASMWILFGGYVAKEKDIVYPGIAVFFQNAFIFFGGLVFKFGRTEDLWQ
UniProt Q9BVC6: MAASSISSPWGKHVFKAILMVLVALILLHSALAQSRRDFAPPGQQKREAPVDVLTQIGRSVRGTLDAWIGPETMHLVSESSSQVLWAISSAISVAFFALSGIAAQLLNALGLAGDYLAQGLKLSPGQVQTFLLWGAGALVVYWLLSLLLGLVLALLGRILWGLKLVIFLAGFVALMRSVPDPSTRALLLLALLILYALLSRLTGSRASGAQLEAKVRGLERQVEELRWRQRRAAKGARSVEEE
UniProt Q86XT9, whole entry, looked up: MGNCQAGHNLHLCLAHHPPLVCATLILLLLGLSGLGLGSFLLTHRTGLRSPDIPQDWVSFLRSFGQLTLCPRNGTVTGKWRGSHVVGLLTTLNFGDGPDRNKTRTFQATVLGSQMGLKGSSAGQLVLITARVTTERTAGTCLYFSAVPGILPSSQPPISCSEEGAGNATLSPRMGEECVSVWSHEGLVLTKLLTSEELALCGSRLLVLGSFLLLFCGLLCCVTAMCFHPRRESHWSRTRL
UniProt Q9Y3A6: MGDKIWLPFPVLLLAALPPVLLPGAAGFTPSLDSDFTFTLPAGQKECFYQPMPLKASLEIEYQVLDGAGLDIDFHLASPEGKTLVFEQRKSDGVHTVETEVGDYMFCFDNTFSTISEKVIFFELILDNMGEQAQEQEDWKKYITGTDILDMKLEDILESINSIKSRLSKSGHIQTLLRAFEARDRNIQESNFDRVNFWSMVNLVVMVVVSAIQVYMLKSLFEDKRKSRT
UniProt Q9H1E5: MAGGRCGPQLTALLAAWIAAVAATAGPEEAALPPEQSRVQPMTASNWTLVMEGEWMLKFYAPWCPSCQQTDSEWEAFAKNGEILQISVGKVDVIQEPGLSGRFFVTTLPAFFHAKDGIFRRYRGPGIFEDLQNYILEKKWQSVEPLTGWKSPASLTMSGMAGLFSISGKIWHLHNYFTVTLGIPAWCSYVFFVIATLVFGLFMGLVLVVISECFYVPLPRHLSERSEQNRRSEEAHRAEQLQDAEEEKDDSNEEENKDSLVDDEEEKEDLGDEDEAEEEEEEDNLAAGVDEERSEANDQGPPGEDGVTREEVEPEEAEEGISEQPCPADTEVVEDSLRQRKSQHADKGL
UniProt Q9NYL9: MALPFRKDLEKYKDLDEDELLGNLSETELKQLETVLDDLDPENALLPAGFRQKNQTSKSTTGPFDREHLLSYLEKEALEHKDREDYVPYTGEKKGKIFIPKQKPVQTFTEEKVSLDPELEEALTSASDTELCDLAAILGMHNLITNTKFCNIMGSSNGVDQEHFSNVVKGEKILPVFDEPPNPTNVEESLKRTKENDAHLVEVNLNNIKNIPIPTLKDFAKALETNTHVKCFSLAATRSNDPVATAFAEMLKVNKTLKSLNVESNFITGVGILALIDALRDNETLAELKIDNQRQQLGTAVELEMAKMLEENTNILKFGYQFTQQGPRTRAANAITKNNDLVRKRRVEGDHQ
UniProt Q9NWD8: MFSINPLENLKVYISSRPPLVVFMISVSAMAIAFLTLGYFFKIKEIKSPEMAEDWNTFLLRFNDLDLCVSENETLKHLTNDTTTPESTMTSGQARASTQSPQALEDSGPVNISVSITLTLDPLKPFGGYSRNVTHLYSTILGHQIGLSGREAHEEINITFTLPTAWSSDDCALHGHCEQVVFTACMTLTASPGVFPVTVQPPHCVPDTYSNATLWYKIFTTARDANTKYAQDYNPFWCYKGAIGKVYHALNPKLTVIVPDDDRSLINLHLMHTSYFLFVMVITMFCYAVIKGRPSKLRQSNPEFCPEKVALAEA
UniProt Q7Z7H5: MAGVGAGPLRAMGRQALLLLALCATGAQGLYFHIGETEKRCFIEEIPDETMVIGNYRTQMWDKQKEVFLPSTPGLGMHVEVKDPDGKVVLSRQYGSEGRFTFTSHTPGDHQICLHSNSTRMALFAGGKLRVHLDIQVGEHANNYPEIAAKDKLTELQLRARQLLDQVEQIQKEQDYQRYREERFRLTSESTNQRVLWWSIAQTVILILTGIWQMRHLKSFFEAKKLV
UniProt Q96K49: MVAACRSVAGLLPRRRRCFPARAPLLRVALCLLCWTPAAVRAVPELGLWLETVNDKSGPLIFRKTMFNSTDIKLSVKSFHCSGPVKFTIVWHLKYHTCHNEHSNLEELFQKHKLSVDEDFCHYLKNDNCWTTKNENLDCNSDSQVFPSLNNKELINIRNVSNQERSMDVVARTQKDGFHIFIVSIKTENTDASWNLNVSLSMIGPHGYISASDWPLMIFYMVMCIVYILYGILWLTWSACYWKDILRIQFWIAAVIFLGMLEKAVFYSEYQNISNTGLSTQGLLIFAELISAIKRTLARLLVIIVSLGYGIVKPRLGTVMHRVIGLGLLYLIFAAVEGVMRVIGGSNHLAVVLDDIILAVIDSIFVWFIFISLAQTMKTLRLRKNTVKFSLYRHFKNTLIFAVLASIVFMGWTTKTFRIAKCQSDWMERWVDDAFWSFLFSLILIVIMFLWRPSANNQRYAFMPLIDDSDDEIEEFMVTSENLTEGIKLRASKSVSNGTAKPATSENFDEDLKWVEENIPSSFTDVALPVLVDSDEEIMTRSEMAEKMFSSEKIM
UniProt Q96B77: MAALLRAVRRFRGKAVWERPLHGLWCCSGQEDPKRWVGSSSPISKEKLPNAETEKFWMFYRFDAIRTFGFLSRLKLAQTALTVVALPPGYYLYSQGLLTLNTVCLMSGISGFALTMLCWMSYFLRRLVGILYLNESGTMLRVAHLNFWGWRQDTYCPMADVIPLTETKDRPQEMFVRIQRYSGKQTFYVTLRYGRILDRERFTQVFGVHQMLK
UniProt Q08117: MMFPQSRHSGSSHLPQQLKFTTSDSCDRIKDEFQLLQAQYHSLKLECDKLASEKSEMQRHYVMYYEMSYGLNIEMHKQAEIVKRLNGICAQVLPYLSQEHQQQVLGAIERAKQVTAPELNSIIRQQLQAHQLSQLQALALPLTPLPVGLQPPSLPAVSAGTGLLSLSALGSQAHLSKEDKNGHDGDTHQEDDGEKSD
UniProt Q8N131: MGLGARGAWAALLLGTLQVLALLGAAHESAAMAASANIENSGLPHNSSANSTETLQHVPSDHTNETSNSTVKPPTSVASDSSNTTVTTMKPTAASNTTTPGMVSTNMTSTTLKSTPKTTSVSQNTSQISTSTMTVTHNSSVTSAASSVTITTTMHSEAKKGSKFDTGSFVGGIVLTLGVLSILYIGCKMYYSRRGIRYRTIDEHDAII
UniProt Q9NS93: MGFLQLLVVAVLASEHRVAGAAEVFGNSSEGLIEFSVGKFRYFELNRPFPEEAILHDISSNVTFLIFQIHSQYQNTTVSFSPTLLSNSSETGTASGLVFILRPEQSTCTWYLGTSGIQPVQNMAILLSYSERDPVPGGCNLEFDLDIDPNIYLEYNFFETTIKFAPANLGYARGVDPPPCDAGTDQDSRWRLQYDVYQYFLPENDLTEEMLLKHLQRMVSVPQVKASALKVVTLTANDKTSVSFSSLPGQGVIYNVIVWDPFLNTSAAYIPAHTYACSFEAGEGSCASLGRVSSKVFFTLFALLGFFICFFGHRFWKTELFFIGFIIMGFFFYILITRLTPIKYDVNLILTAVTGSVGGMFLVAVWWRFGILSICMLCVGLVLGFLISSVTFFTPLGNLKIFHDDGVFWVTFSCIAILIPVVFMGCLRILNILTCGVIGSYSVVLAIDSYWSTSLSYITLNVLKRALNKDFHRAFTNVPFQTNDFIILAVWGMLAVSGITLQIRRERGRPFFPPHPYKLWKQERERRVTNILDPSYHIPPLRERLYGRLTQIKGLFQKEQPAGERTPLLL
UniProt Q9NX78: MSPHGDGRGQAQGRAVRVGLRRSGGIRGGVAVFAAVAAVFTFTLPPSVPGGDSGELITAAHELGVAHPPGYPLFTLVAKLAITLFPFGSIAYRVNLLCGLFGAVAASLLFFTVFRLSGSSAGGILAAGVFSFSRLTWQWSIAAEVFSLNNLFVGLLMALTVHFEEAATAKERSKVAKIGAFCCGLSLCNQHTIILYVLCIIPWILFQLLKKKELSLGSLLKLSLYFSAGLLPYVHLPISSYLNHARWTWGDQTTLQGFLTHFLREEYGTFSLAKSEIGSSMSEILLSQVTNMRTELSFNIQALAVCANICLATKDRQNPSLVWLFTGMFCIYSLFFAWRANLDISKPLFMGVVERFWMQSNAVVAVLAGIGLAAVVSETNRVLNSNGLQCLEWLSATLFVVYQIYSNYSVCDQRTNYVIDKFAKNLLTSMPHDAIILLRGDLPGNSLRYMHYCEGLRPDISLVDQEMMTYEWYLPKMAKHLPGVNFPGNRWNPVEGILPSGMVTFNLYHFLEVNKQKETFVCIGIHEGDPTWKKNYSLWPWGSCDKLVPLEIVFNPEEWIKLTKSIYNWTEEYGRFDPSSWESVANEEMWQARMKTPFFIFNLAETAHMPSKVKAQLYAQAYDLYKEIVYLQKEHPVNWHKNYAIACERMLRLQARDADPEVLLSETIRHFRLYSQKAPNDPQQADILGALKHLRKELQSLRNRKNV
UniProt O76062: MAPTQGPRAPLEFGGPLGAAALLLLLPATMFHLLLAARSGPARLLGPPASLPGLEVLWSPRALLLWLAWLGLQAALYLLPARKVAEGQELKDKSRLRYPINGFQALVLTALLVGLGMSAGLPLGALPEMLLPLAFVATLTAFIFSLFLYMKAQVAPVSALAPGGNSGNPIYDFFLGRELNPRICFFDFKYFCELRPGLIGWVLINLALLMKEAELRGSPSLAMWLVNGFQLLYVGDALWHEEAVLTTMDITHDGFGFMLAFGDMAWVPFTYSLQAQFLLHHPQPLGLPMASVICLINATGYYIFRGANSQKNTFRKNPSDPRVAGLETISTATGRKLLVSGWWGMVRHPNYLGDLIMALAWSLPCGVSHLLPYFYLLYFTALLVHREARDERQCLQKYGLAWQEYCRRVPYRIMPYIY
UniProt P62328: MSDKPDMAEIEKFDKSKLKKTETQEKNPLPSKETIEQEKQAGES
UniProt Q6UWJ1: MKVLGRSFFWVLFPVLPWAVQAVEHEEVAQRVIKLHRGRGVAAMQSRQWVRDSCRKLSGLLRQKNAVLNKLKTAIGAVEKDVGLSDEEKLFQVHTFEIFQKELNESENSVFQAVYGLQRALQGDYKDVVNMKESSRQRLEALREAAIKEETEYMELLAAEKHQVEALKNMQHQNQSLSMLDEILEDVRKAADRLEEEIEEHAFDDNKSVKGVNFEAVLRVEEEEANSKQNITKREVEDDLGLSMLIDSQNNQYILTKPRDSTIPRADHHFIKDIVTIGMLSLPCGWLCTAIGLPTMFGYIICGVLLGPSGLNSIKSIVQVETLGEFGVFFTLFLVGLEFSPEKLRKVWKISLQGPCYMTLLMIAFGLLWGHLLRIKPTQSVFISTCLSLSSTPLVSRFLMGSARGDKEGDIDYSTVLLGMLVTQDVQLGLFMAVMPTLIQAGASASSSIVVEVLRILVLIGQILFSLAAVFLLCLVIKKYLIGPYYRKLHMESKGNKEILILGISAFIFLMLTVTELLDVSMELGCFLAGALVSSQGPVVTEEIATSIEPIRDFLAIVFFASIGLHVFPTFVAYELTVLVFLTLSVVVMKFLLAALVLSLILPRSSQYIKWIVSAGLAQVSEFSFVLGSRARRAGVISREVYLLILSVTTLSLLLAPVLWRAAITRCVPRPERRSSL
UniProt Q9BZW5, whole entry, looked up: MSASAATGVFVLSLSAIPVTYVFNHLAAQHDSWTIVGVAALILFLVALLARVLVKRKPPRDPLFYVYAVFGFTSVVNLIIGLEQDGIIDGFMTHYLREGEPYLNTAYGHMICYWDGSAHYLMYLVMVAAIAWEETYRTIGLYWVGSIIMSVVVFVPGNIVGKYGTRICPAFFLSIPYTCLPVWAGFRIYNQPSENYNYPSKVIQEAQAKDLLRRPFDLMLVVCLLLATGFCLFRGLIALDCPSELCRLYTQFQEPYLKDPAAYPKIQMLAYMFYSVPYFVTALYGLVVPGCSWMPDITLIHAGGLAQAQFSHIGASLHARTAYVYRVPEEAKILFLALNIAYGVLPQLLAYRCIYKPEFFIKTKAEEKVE
UniProt Q7Z7N9: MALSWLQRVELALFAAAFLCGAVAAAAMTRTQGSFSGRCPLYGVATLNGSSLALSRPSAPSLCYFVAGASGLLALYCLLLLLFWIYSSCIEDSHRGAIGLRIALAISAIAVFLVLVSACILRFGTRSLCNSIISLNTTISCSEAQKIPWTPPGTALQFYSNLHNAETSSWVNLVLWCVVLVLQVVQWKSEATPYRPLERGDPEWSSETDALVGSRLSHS

How the values were obtained:
Test in all cases: log2 fold change, soluble protein after heating vs DMSO (PISA); higher = thermal stabilisation; K562 cells, 10 uM, 30 min; active = over 0.2 and 3.5 SD of the protein, either way, in both replicates (recomputed)
[1] = compound: C1=CC=C(C=C1)[C@H](COC2=CC3=C(C=C2)NC(=O)N3)NC(=O)C4=CC=CN(C4=O)CC5=CC(=C(C=C5)F)F
Outline: (§1)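 Quantification of soluble protein used TMTpro 16plex LC-MS/MS, with channel sums equalised. Samples were the supernatant after 21,000xg for 90 min of pooled aliquots from K562 cells (2×10^6 cells/mL) treated with 10 μM compound for 30 min, heated for 3 min over 48°C-58°C, and extracted in PBS with 0.5% NP-40 at 4°C. Values, from duplicates, describe thermal stability against control samples on a log2 fold-change scale.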

[2] = compound: CC1=C(SC2=C1C(=N[C@H](C3=NN=C(N32)C)CC(=O)N)C4=CC=C(C=C4)Cl)C
Outline: as §1

[3] = compound: CC1=C2C(=CC=C1)N=C(N(C2=O)C3=CC=CC=C3C)CN4C=NC5=C(N=CN=C54)N
Outline: as §1

[4] = compound: Cc1sc2c(c1C)C(c1ccc(Cl)cc1)=N[C@@H](CC(=O)OC(C)(C)C)c1nnc(C)n1-2
Outline: as §1

[5] = compound: c1ccc([C@@H]2C[C@H]2NC2CCNCC2)cc1
Outline: as §1

Measured: log2 fold change

TMEM11 (UniProt P17152)
inactive: [1] 0.015 | [2] -0.011 | [3] 0.066 | [4] 0.007 | [5] -0.011

TMEM50A (UniProt O95807)
inactive: [1] 0.113 | [2] -0.409 | [3] -0.076 | [4] 0.073 | [5] 0.291

TMEM192 (UniProt Q8IY95)
inactive: [1] 0.02 | [2] -0.03 | [3] 0.018 | [4] -0.024 | [5] 0.032

TLN2 (UniProt Q9Y4G6)
inactive: [1] -0.005 | [2] 0.049 | [3] -0.026 | [4] 0.023 | [5] -0.017

TMEM168 (UniProt Q9H0V1)
inactive: [1] 0.014 | [2] 0.066 | [3] -0.002 | [4] -0.128 | [5] 0.06

TMEM97 (UniProt Q5BJF2)
inactive: [1] 0.06 | [2] 0.052 | [3] -0.018 | [4] 0.031 | [5] 0.028

TMEM109 (UniProt Q9BVC6)
inactive: [1] 0.048 | [2] 0.019 | [3] 0.053 | [4] -0.096 | [5] -0.024

TMEM219 (UniProt Q86XT9)
inactive: [1] 0.066 | [2] -0.023 | [3] -0.172 | [4] 0.016 | [5] -0.162

TMED9 (UniProt Q9BVK6)
inactive: [1] 0.012 | [2] 0.012 | [3] 0.025 | [4] -0.004 | [5] -0.02

TMED5 (UniProt Q9Y3A6)
inactive: [1] -0.015 | [2] 0.036 | [3] 0.031 | [4] -0.025 | [5] -0.029

TNFAIP1 (UniProt Q13829)
inactive: [1] -0.058 | [2] -0.027 | [3] -0.141 | [4] -0.055 | [5] 0.043

TMX4 (UniProt Q9H1E5)
inactive: [1] 0.038 | [2] -0.034 | [3] -0.005 | [4] 0.057 | [5] 0

TMX3 (UniProt Q96JJ7)
inactive: [1] 0.015 | [2] 0.031 | [3] 0.025 | [4] 0.017 | [5] 0

TMOD3 (UniProt Q9NYL9)
inactive: [1] -0.005 | [2] 0.059 | [3] 0.005 | [4] 0.052 | [5] -0.037

Retrieved one by one from the entries so far, two records:
TMX4 (UniProt Q9H1E5)
inactive: [1] 0.038 | [2] -0.034 | [3] -0.005 | [4] 0.057 | [5] 0

TMX3 (UniProt Q96JJ7)
inactive: [1] 0.015 | [2] 0.031 | [3] 0.025 | [4] 0.017 | [5] 0

Further results:

TMEM248 (UniProt Q9NWD8)
inactive: [1] 0.027 | [2] -0.054 | [3] -0.032 | [4] -0.008 | [5] 0.002

TMUB1 (UniProt Q9BVT8)
inactive: [1] -0.027 | [2] -0.193 | [3] -0.22 | [4] 0.029 | [5] -0.037

TMED4 (UniProt Q7Z7H5)
inactive: [1] 0 | [2] 0.022 | [3] 0.038 | [4] -0.017 | [5] -0.005

TMEM173 (UniProt Q86WV6)
inactive: [1] -0.035 | [2] 0.045 | [3] 0.086 | [4] -0.099 | [5] -0.005

TMEM87B (UniProt Q96K49)
inactive: [1] 0.04 | [2] 0.083 | [3] -0.031 | [4] -0.036 | [5] 0.012

TMEM209 (UniProt Q96SK2)
inactive: [1] -0.015 | [2] 0.037 | [3] 0.044 | [4] -0.053 | [5] -0.027

TMPPE (UniProt Q6ZT21)
inactive: [1] 0.074 | [2] 0.036 | [3] -0.001 | [4] -0.007 | [5] -0.038

TMEM223 (UniProt A0PJW6)
inactive: [1] 0.069 | [2] -0.045 | [3] 0.118 | [4] 0.03 | [5] -0.024

TMEM186 (UniProt Q96B77)
inactive: [1] 0.045 | [2] -0.02 | [3] 0.105 | [4] -0.024 | [5] 0.056

TLE5 isoform 2 (UniProt Q08117)
inactive: [2] -0.043 | [3] 0.129 | [5] -0.021

TMEM123 (UniProt Q8N131)
inactive: [1] 0.008 | [3] 0.029 | [4] 0.123

TM7SF3 (UniProt Q9NS93)
inactive: [1] -0.058 | [2] 0.104 | [4] -0.037 | [5] 0.196

TMEM260 (UniProt Q9NX78)
inactive: [4] 0.058

TM7SF2 (UniProt O76062)
inactive: [2] 0.182 | [3] -0.129 | [5] 0.159

TMSB4X (UniProt P62328)
inactive: [1] 0.203 | [2] 0.069 | [3] 0.128 | [5] 0.261

TMCO3 (UniProt Q6UWJ1)
inactive: [3] -0.219

TM6SF1 (UniProt Q9BZW5)
inactive: [2] 0.073 | [3] 0.243 | [4] 0.147 | [5] 0.313

TMEM179B (UniProt Q7Z7N9)
inactive: [1] -0.065 | [2] 0.081 | [4] 0.005 | [5] -0.024
